Source: PubChem BioAssay AID248 (DTP/NCI, 2004)
The list does not hold the whole screen: it is rich in T/C values a quarter to a half above the control, in often repeated tests (any T/C) and in doses without a T/C. Further doses and runs are listed elsewhere. T/C is the treated group as % of the vehicle group. Some entries give survivors of the animals treated and no T/C: the source files T/C as zero there, which appears to mark a toxic dose or a test without result, not a measured value. Some doses without a T/C left all or most animals alive at the check, yet need not have been tolerated: survival well below the control is almost never listed, so the zero probably covers shortened survival too. Counts of survivors are from the toxicity check (mostly the fifth day) where no day follows; animals may have died later. Schedules are NCI's codes, taken here to give the interval after Q, in days (D) or hours (H), and the number of doses after X. Additions like (4×) give the number of equal values in this list. Some doses were run more than once; their values stand side by side, smallest first. For survival time, this PubChem deposit counts one and a half times the control or more as active, and values a quarter to a half above the control carry no call in these data; other NCI protocols may use other cut-offs.

Tested on: L1210 leukemia ip in BDF1 mice, survival T/C
Test: NCI In Vivo Anticancer Drug Screen. Data for tumor model L1210 Leukemia (intraperitoneal) in B6D2F1 (BDF1) mice
Details: T/C endpoint: mean survival time, higher T/C = longer survival
[1] = dose: 100.0 mg/kg/injection, schedule: Q01DX009 (ip), vehicle: Klucel (hydroxypropylcellulose) (HPC)
[2] = dose: 400.0 mg/kg/injection, schedule: Q01DX009 (ip), vehicle: Klucel (hydroxypropylcellulose) (HPC)
[3] = dose: 400.0 mg/kg/injection, schedule: Q01DX001 (ip), vehicle: saline with Tween-80
[4] = dose: 100.0 mg/kg/injection, schedule: Q04DX002 (ip), vehicle: saline
[5] = dose: 400.0 mg/kg/injection, schedule: Q04DX002 (ip), vehicle: saline
[6] = dose: 200.0 mg/kg/injection, schedule: Q01DX001 (ip), vehicle: saline
[7] = dose: 400.0 mg/kg/injection, schedule: Q01DX009 (ip), vehicle: saline with Tween-80
[8] = dose: 400.0 mg/kg/injection, schedule: Q04DX003 (ip), vehicle: saline with Tween-80

CC(C)(C)c1cc(/C=N/NC(=O)CCCCCCCCC(=O)N/N=C/c2cc(C(C)(C)C)c(O)c(C(C)(C)C)c2)cc(C(C)(C)C)c1O
survivor count [1]: 6 of 6 | survivor count [2]: 1 of 3 and 3 of 6

c1ccc(C(Nc2ccnc3nc[nH]c23)c2ccccc2)cc1
survivor count (dose: 200.0 mg/kg/injection, schedule: Q01DX009 (ip), vehicle: saline with Tween-80): 0 of 6 | survivor count [3]: 0 of 6

Brc1nc(-c2ccccc2)c(-c2ccccc2)nc1Br
survivor count (dose: 50.0 mg/kg/injection, schedule: Q01DX001 (ip), vehicle: saline): 4 of 4

[C](#[C][Sn]([c]1ccccc1)([c]1ccccc1)[c]1ccccc1)[Sn]([c]1ccccc1)([c]1ccccc1)[c]1ccccc1
survivor count [4]: 3 of 3

c1cc(N=NNc2cccc(C3=NCCN3)c2)cc(C2=NCCN2)c1
survivor count (dose: 62.0 mg/kg/injection, schedule: Q01DX015 (ip), vehicle: water): 1 of 6 | survivor count (dose: 125.0 mg/kg/injection, schedule: Q01DX015 (ip), vehicle: water): 0 of 6 | survivor count (dose: 250.0 mg/kg/injection, schedule: Q01DX015 (ip), vehicle: water): 0 of 6 | survivor count (dose: 500.0 mg/kg/injection, schedule: Q01DX015 (ip), vehicle: water): 0 of 6

O=C(CCN1CC1)OCC1CC1
survivor count (dose: 40.0 mg/kg/injection, schedule: Q01DX009 (ip), vehicle: Klucel (hydroxypropylcellulose) (HPC)): 6 of 6 | survivor count (dose: 80.0 mg/kg/injection, schedule: Q01DX009 (ip), vehicle: Klucel (hydroxypropylcellulose) (HPC)): 4 of 6 | survivor count (dose: 100.0 mg/kg/injection, schedule: Q04DX003 (ip), vehicle: Klucel (hydroxypropylcellulose) (HPC)): 6 of 6 | survivor count (dose: 200.0 mg/kg/injection, schedule: Q04DX003 (ip), vehicle: Klucel (hydroxypropylcellulose) (HPC)): 1 of 6 | survivor count (dose: 400.0 mg/kg/injection, schedule: Q04DX003 (ip), vehicle: Klucel (hydroxypropylcellulose) (HPC)): 0 of 6

CCOc1ccc(NC(=O)c2c(Br)c(Br)c(Br)c(Br)c2C(=O)O)cc1
survivor count [2]: 4 of 6

CCN(CC)CC(=O)NCC(CCN1CCCC1)(CC(C)C)c1cccc2ccccc12 (centres undefined)
survivor count [5]: 1 of 3

CCN(CC)CCNC(c1ccccc1)C(Cl)(Cl)Cl (centres undefined)
survivor count [6]: 2 of 4 | survivor count (dose: 400.0 mg/kg/injection, schedule: Q01DX001 (ip), vehicle: saline): 0 of 4

Cc1cc2ccccc2cc1C
survivor count (dose: 50.0 mg/kg/injection, schedule: Q04DX002 (ip), vehicle: other): 3 of 3

CC(C)CC(C)OP(=S)(S)OC(C)CC(C)C (centres undefined)
survivor count [4]: 2 of 3 | survivor count (dose: 200.0 mg/kg/injection, schedule: Q04DX002 (ip), vehicle: saline): 0 of 3 | survivor count [5]: 0 of 3

O=C1NC(=O)C(F)(F)C(O)N1 (centres undefined)
T/C (dose: 65.0 mg/kg/injection, schedule: Q01DX009 (ip), vehicle: saline): 127 % of control | T/C (dose: 100.0 mg/kg/injection, schedule: Q01DX009 (ip), vehicle: saline): 140 % of control | T/C (dose: 150.0 mg/kg/injection, schedule: Q01DX009 (ip), vehicle: saline): 145 % of control

O=CNC1CCCCC1
survivor count (dose: 160.0 mg/kg/injection, schedule: Q01DX001 (ip), vehicle: saline with Tween-80): 1 of 6

CN1C(=O)NC(C)(c2cccs2)C1=O (centres undefined)
survivor count [7]: 3 of 6

C#CCOCC(O)C[As](=O)(O)c1cccc(Cl)c1 (centres undefined)
survivor count (dose: 25.0 mg/kg/injection, schedule: Q04DX003 (ip), vehicle: saline with Tween-80): 2 of 6 | survivor count (dose: 50.0 mg/kg/injection, schedule: Q04DX003 (ip), vehicle: saline with Tween-80): 0 of 6 | survivor count (dose: 100.0 mg/kg/injection, schedule: Q04DX003 (ip), vehicle: saline with Tween-80): 0 of 6 (2×) | survivor count (dose: 200.0 mg/kg/injection, schedule: Q04DX003 (ip), vehicle: saline with Tween-80): 0 of 6 | survivor count [8]: 0 of 6

CCC(C)(C(=O)NO)c1ccccc1 (centres undefined)
survivor count [3]: 1 of 6

CN(C)c1ccc(/C=N/NC(=O)c2cccc3ccccc23)c(Cl)c1
survivor count (dose: 100.0 mg/kg/injection, schedule: Q01DX001 (ip), vehicle: saline): 4 of 4 | survivor count [6]: 4 of 4

S=c1[nH]c2nc(Cl)c(Cl)nc2[nH]1
survivor count [7]: 0 of 6 | survivor count [8]: 0 of 6

O=C(OCCN1CCCCC1)C(c1ccccc1)C1(O)CCCC1 (centres undefined)
survivor count (dose: 200.0 mg/kg/injection, schedule: Q01DX009 (ip), vehicle: saline): 2 of 6

CC[CH2][Pb]([CH2]CC)([CH2]CC)[O]C(=O)CCl
survivor count (dose: 12.0 mg/kg/injection, schedule: Q01DX009 (ip), vehicle: Klucel (hydroxypropylcellulose) (HPC)): 6 of 6 | survivor count (dose: 25.0 mg/kg/injection, schedule: Q01DX009 (ip), vehicle: Klucel (hydroxypropylcellulose) (HPC)): 0 of 6 | survivor count (dose: 50.0 mg/kg/injection, schedule: Q01DX009 (ip), vehicle: Klucel (hydroxypropylcellulose) (HPC)): 0 of 6 | survivor count [1]: 0 of 6 | survivor count (dose: 200.0 mg/kg/injection, schedule: Q01DX009 (ip), vehicle: Klucel (hydroxypropylcellulose) (HPC)): 0 of 6 | survivor count [2]: 0 of 6

O=C1NC(C2CCC3CN32)C(=O)NC1C1CCC2CN21 (centres undefined)
T/C (dose: 0.8 mg/kg/injection, schedule: Q01DX009 (ip), vehicle: saline): 126 % of control | T/C (dose: 1.1 mg/kg/injection, schedule: Q01DX009 (ip), vehicle: saline): 136 % of control | T/C (dose: 1.8 mg/kg/injection, schedule: Q01DX009 (ip), vehicle: saline): 134 and 149 % of control | T/C (dose: 4.0 mg/kg/injection, schedule: Q01DX001 (ip), vehicle: Klucel (hydroxypropylcellulose) (HPC)): 130 % of control | T/C (dose: 7.0 mg/kg/injection, schedule: Q01DX001 (ip), vehicle: Klucel (hydroxypropylcellulose) (HPC)): 136 % of control | T/C (dose: 8.0 mg/kg/injection, schedule: Q01DX001 (ip), vehicle: Klucel (hydroxypropylcellulose) (HPC)): 142 % of control | T/C (dose: 10.5 mg/kg/injection, schedule: Q01DX001 (ip), vehicle: Klucel (hydroxypropylcellulose) (HPC)): 144 % of control | survivor count (dose: 20.0 mg/kg/injection, schedule: Q01DX009 (ip), vehicle: saline): 6 of 6 | survivor count (dose: 40.0 mg/kg/injection, schedule: Q01DX009 (ip), vehicle: saline): 5 of 6
